## Library compounds against nucleic acid targets

Calls as published in the ROBIN set (doi:10.1002/anie.202211358).

Targets (5′ to 3′):
TPP: TPP riboswitch RNA three-way junction, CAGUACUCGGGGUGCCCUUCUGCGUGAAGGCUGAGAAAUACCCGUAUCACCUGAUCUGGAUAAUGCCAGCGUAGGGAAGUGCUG. About 24,000 compounds screened, about 160 hits.
PreQ1: PreQ1 riboswitch RNA pseudoknot, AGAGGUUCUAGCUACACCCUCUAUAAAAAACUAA. From B. subtilis. About 24,000 compounds screened, about 170 hits.
SAM-II: SAM-II riboswitch RNA pseudoknot, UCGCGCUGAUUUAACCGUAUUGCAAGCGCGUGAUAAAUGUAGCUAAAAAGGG. About 21,000 compounds screened, about 200 hits.

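Compounds were printed on reactive glass slides in duplicate spots, a dye-labelled oligonucleotide was laid over them, and the fluorescence left after washing was read. The data file lists only calls. An earlier report of the laboratory on the PreQ1, TPP and SAM-II riboswitches (doi:10.1038/s41467-019-09493-3) used 1 µM RNA for 2 h and required a mean Z-score above 3 (spot signal-to-noise against the whole library), a score well above that on a control array, and duplicate spots agreeing (coefficient of variation under 100); it then also set aside compounds that hit other targets, which this list keeps. The cut-offs behind this list may differ. The calls come from the array alone, and fixing a compound to the slide can hide its binding.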 “active” means called a hit, “inactive” means screened and not called a hit. This is an unselected part of the compounds tested. A target missing from an entry has no call listed here.

O=C(Nc1ccc2c(c1)OCO2)c1cccc(CN2CC[C@H](O)C2)c1 was scored TPP: inactive; PreQ1: inactive; SAM-II: inactive.
Oc1ccccc1C=NCC(O)CN=Cc1ccccc1O (stereo not given) was scored TPP: inactive; PreQ1: inactive; SAM-II: inactive.
Cc1nc(CCN)cc(N(C)Cc2nncn2C(C)C)n1 was scored TPP: inactive; PreQ1: inactive; SAM-II: inactive.
COc1cc2nccc(Oc3ccc(NC(=O)NC4CC4)c(Cl)c3)c2cc1C(N)=O was scored TPP: inactive; PreQ1: inactive; SAM-II: inactive.
COc1ccc(CCNc2nc3ccccc3nc2NS(=O)(=O)c2ccc(C)cc2)cc1OC was scored TPP: inactive; PreQ1: inactive; SAM-II: inactive.
N#CC1=C(N)OC2=C(C1c1cccnc1)S(=O)(=O)N(Cc1ccccc1)c1ccccc12 (stereo not given) was scored TPP: inactive; PreQ1: inactive.
CCc1nn(C)c(Cl)c1CN1C[C@H](CO)C[C@H](CN2CCOCC2)C1 was scored TPP: inactive; PreQ1: inactive; SAM-II: inactive.
CCN1c2ccccc2C2=C(C(c3cccnc3)C(C#N)=C(N)O2)S1(=O)=O (stereo not given) was scored TPP: inactive; PreQ1: inactive.
CCn1nc(C)c(NC(=O)CNCc2noc(-c3ccco3)n2)c1C was scored TPP: inactive; PreQ1: inactive; SAM-II: inactive.
O=C(CN1CCCC(O)C1)N1CCc2[nH]c3c(Cl)cccc3c2C1 (stereo not given) was scored TPP: inactive; PreQ1: inactive; SAM-II: inactive.
O=C(C1NCCc2[nH]cnc21)N1CCCn2cncc2C1 (stereo not given) was scored TPP: inactive; PreQ1: inactive; SAM-II: inactive.
O=C1c2ccccc2C(=O)C1(Nc1ccc2c(c1)OCO2)c1ccccc1 was scored TPP: inactive; PreQ1: inactive; SAM-II: inactive.
CC(C)CCSc1ncnc(N)n1 was scored TPP: inactive; PreQ1: inactive; SAM-II: inactive.
COc1ccc(CCNc2ncnc3c2CCNCC3)c(OC)c1 was scored TPP: inactive; PreQ1: inactive; SAM-II: inactive.
CCOc1nc(NC2CCCC2)nc(N2CCC(C)CC2)n1 was scored TPP: inactive; PreQ1: inactive; SAM-II: inactive.
CCNc1nc(C)cc(N2CCN(S(=O)(=O)c3cc(C(C)(C)C)ccc3OC)CC2)n1 was scored TPP: inactive; PreQ1: inactive.
CCC(C)(C)NCc1ccc2c(c1)n(C)c(=O)n2C was scored TPP: inactive; PreQ1: inactive.
COc1ccc([N+](=O)[O-])cc1NC(=O)N(C)Cc1ccco1 was scored TPP: inactive; PreQ1: inactive; SAM-II: inactive.
COCc1cc(C)nc2sc(C(=O)c3ccc(F)cc3F)c(N)c12 was scored TPP: inactive; PreQ1: inactive; SAM-II: inactive.
COc1ccccc1-n1cc(-c2cc(-c3cnn(C)c3C)c(C#N)c(N)n2)cn1 was scored TPP: inactive; PreQ1: inactive; SAM-II: inactive.
C=CCNCc1ccc(OCc2ccc3c(c2)n(C)c(=O)n3C)c(OC)c1 was scored TPP: inactive; PreQ1: inactive.
Cc1cccc(C)c1Nc1c(-c2ccccc2O)nc2cnccn12 was scored TPP: inactive; PreQ1: inactive; SAM-II: inactive.
Cc1cc(C)n(CC(C)Nc2cc(CN)nc(C)n2)n1 (stereo not given) was scored TPP: inactive; PreQ1: inactive; SAM-II: inactive.
O=C(Nc1ccsn1)c1ccc(Cl)cc1Cl was scored TPP: inactive; PreQ1: inactive; SAM-II: inactive.
CN1CC(c2ccccc2)CC2(CCN(C(=O)c3ccc(CO)cc3)CC2)C1 (stereo not given) was scored TPP: inactive; PreQ1: inactive; SAM-II: inactive.
Cc1ccc(NC(=O)Cn2c(-c3nonc3N)nc3ccccc32)cc1F was scored TPP: inactive; PreQ1: inactive; SAM-II: inactive.
CC(=O)[O-].Cc1c2cc[n+](CCN3CCCCC3)cc2c(C)c2c1[nH]c1ccc(O)cc12 was scored TPP: inactive; PreQ1: inactive; SAM-II: inactive.
OCCC1CN(CCOc2ccc(F)cc2)CCN1CC1CCCCC1 (stereo not given) was scored TPP: inactive; PreQ1: inactive; SAM-II: inactive.
CC1CCc2sc3ncnc(NCCCN4CCOCC4)c3c2C1 (stereo not given) was scored TPP: inactive; PreQ1: inactive; SAM-II: inactive.
CCOc1cc(C2C(C#N)=C(N)OC3=C2C(=O)CCC3)ccc1O (stereo not given) was scored TPP: inactive; PreQ1: inactive; SAM-II: inactive.

Repeated from the top, 4 entries:

SMILES	TPP	PreQ1	SAM-II
O=C(Nc1ccc2c(c1)OCO2)c1cccc(CN2CC[C@H](O)C2)c1	inactive	inactive	inactive
Oc1ccccc1C=NCC(O)CN=Cc1ccccc1O (stereo not given)	inactive	inactive	inactive
Cc1nc(CCN)cc(N(C)Cc2nncn2C(C)C)n1	inactive	inactive	inactive
COc1cc2nccc(Oc3ccc(NC(=O)NC4CC4)c(Cl)c3)c2cc1C(N)=O	inactive	inactive	inactive